According to patent publication US20050281815A1:
These are yes or no findings as the source states them, for the method shown. Some binding calls cover weakened binding; strength is not graded here. Where a sequence is shown, tags or fusion partners need not be part of it.

The chains behind the UniProt entries cited, without tags or fusion partners. Residues count along the entry.
UniProt P29965, residues 116-261: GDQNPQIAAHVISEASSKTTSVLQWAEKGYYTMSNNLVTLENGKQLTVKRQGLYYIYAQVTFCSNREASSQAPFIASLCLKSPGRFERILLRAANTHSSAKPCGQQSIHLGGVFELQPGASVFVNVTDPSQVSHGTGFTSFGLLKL

Legend:
[1] = biological target: rsCD154 captured on the Biacore chip (UniProt P29965); experiment: Biacore, rsCD154 captured by anti CD154 antibody on CM5 chip
[2] = biological target: CD154 (ALX-522-015), immobilized on ELISA plates (UniProt P29965); experiment: ELISA, CD154 immobilized on the plate, detection with anti-CD40 antibody
[3] = biological target: rsCD154 captured on the Biacore chip (UniProt P29965); experiment: Biacore, rsCD154 captured by anti CD154 antibody on CM5 chip, analytes 20-400 nM

Measured: binding

B1: CD40-skipping 6 protein fused to the Fc chain of Immunoglobulin IgG1 (CD40-Skip6-Fc) (Fc fusion, not shown: a dimerising Fc or GST)
chain: EPPTACREKQYLINSQCCSLCQPGQKLVSDCTEFTETECLPCGESEFLDTWNRETHCHQHKYCDPNLGLRVQQKGTSETDTICTCEEGWHCTSEACESCVLHRSCSPGFGVKQIATGVSDTICEPCPVGFFSNVSSAFEKCHPWTRSPGSAESPGGDPHHLRDPVCHPLGAGLYQKGGQEANQ
binds: all assays above
